Results reported in PMC12450638 (The Journal of Biological Chemistry, 2025).

Molecular target: T1, KP1 peptide (…)
T1 sequence (peptide): NRFAGFGIGL
Assay: crystal structure; B∗73:01/KP1 and KIR2DL2 purified separately by SEC in 10 mM Hepes, 150 mM NaCl, pH 7.2, mixed at 1:1 molar ratio, 6 to 10 mg/ml; crystals in Tris-HCl pH 8.75, 20% PEG 8000; 2.9 Å; both purified

binding: binds
Substance: KIR2DL2∗001, soluble construct (residues 1-225 of the mature protein) (human) (receptor)

These are yes or no findings as the source states them, for the method shown. Binding can be weak; no strength is given.
